The values below come from article PMC6646387, “Identification of intracellular cavin target proteins reveals cavin-PP1alpha interactions regulate apoptosis” (Nature Communications, 2019).

The chains behind the UniProt entries cited, without tags or fusion partners.
UniProt P14618: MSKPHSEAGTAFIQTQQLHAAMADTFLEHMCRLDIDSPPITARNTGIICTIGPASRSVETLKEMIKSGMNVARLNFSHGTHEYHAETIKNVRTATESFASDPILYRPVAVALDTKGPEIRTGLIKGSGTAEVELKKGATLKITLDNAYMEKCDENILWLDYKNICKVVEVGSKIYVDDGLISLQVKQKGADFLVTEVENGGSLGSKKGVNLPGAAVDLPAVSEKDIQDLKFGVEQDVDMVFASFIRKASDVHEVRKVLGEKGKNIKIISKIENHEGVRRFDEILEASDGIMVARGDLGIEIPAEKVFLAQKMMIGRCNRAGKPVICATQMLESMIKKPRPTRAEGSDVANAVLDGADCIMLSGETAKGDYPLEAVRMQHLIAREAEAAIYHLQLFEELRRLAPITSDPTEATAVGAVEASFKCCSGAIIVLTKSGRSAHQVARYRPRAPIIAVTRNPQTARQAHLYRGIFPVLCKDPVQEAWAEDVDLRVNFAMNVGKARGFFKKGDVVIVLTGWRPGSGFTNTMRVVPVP
UniProt P08758: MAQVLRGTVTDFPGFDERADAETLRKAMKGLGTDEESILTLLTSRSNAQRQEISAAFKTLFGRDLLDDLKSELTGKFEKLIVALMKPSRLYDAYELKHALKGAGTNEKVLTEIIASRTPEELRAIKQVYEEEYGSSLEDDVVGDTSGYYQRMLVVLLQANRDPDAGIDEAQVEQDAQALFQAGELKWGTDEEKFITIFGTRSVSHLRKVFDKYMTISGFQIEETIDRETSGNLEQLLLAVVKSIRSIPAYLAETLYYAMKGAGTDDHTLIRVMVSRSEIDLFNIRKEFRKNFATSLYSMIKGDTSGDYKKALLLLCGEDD
UniProt P62136: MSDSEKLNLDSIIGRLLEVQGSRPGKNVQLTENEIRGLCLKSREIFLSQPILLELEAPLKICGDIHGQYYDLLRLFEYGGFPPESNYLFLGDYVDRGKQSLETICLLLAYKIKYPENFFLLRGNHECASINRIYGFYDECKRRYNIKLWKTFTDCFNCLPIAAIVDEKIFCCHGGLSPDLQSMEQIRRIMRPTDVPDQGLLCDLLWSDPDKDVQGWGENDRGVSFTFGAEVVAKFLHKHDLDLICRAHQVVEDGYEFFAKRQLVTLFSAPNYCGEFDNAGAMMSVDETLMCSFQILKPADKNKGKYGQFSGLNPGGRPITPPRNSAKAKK
UniProt Q13148: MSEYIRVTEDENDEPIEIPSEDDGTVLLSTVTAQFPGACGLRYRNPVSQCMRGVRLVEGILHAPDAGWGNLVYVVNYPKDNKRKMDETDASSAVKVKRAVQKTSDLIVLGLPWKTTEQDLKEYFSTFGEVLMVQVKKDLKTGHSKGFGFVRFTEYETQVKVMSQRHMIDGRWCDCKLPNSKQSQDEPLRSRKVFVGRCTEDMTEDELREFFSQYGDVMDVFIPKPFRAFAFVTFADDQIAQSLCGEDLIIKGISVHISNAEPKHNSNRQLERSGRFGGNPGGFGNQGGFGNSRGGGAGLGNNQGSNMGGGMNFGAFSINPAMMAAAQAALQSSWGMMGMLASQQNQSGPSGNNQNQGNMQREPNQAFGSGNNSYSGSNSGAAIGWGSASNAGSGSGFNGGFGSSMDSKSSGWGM
UniProt Q92769: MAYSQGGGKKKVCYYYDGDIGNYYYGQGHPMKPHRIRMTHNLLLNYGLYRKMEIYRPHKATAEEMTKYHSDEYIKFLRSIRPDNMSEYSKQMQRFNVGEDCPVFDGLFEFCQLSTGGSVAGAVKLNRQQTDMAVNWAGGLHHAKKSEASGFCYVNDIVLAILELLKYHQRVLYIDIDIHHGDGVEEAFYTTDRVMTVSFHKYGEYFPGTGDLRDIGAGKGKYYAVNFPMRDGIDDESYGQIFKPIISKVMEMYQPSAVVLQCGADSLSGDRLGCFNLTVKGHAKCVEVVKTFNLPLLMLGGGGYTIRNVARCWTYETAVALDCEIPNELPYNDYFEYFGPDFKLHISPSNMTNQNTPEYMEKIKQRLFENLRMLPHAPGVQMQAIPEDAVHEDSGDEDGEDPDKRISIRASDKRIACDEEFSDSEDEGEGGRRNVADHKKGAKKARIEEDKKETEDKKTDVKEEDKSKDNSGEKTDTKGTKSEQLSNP

No constants are given. Whether binding was seen depends on the method and setting. In cells and extracts the contact can be indirect. A yes stands for co-enrichment or nearness to the bait. Other partners may have been found. For some assays here: Tags and fused reporters may be left off the sequences shown.

One test deals with T1, Cavin3-BirA (mouse) (UniProt Q91VJ2).
T1 sequence: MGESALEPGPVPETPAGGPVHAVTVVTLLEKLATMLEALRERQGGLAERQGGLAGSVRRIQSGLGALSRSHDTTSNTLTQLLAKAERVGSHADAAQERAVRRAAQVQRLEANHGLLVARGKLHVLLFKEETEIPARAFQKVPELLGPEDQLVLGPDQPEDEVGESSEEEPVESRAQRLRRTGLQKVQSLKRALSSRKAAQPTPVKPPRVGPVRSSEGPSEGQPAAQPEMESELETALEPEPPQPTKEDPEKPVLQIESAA
The experiment in a line: proximity labelling; BioID: Cavin3-BirA expressed in MCF-7 cells, 50 μM biotin 18 h, RIPA lysis, streptavidin agarose, mass spectrometry; proteins found with BirA alone removed, two or more peptides.

The target in test [1] is T2, Cavin3-GFP (mouse) (UniProt Q91VJ2).
T2 sequence: T1 sequence
The experiment in a line: affinity purification with mass spectrometry; GFP Trap pulldown of Cavin3-GFP from A431 lysate (RIPA buffer), mass spectrometry; proteins found with GFP alone removed.

Test [2] addresses T2, Cavin3-GFP (mouse). The experiment in a line: affinity purification with mass spectrometry; GFP Trap pulldown of Cavin3-GFP from MCF-7 lysate (RIPA buffer), mass spectrometry; proteins found with GFP alone removed.

In the case of “pyruvate kinase M (PKM) (from UniProt P14618 1-531) (enzyme)”, the binding entry with Cavin3-BirA (mouse) is on record as “binds”.
In the case of “annexin A5 (ANXA5) (from UniProt P08758 1-320)”, the binding entry with Cavin3-GFP (mouse) [1] and with Cavin3-GFP (mouse) [2] was “binds” each time.
Consider “endogenous PP1α (from UniProt P62136 1-330) (enzyme)”, for which the binding result in the test with Cavin3-GFP (mouse) [1], with Cavin3-BirA (mouse) and with Cavin3-GFP (mouse) [2] was “binds” in each case.
As to “TAR DNA binding protein (TARDBP) 43 (from UniProt Q13148 1-414)”, the binding entry with Cavin3-GFP (mouse) [1] and with Cavin3-GFP (mouse) [2] was “binds” throughout.
For “histone deacetylase 2 (HDAC2) (from UniProt Q92769 1-488) (enzyme)”, the binding result with Cavin3-GFP (mouse) [1] and with Cavin3-GFP (mouse) [2] was “binds” each time.

B1: fructose-bisphosphate aldolase (FBA) A (enzyme, UniProt P04075 1-364)
chain: MPYQYPALTPEQKKELSDIAHRIVAPGKGILAADESTGSIAKRLQSIGTENTEENRRFYRQLLLTADDRVNPCIGGVILFHETLYQKADDGRPFPQVIKSKGGVVGIKVDKGVVPLAGTNGETTTQGLDGLSERCAQYKKDGADFAKWRCVLKIGEHTPSALAIMENANVLARYASICQQNGIVPIVEPEILPDGDHDLKRCQYVTEKVLAAVYKALSDHHIYLEGTLLKPNMVTPGHACTQKFSHEEIAMATVTALRRTVPPAVTGITFLSGGQSEEEASINLNAINKCPLLKPWALTFSYGRALQASALKAWGGKKENLKAAQEEYVKRALANSLACQGKYTPSGQAGAAASESLFVSNHAY
B1: the binding entry with Cavin3-BirA (mouse) is “binds”.

B2: peroxiredoxin-6 (PRDX6) (enzyme, UniProt P30041 1-224)
chain: MPGGLLLGDVAPNFEANTTVGRIRFHDFLGDSWGILFSHPRDFTPVCTTELGRAAKLAPEFAKRNVKLIALSIDSVEDHLAWSKDINAYNCEEPTEKLPFPIIDDRNRELAILLGMLDPAEKDEKGMPVTARVVFVFGPDKKLKLSILYPATTGRNFDEILRVVISLQLTAEKRVATPVDWKDGDSVMVLPTIPEEEAKKLFPKGVFTKELPSGKKYLRYTPQP
Take B2: in the test with Cavin3-BirA (mouse), the binding entry was “binds”.

B3: gamma-glutamylcyclotransferase (GGCT) (enzyme, UniProt O75223 1-188)
chain: MANSGCKDVTGPDEESFLYFAYGSNLLTERIHLRNPSAAFFCVARLQDFKLDFGNSQGKTSQTWHGGIATIFQSPGDEVWGVVWKMNKSNLNSLDEQEGVKSGMYVVIEVKVATQEGKEITCRSYLMTNYESAPPSPQYKKIICMGAKENGLPLEYQEKLKAIEPNDYTGKVSEEIEDIIKKGETQTL
As for B3, the binding entry with Cavin3-GFP (mouse) [1] and in the test with Cavin3-GFP (mouse) [2] was “binds” throughout.
